Among the data in PubChem BioAssay AID493014 (National Center for Advancing Translational Sciences (NCATS), 2011) are AC50 values, retold here.

The structures appear in SMILES notation. Some of the results follow. These are further read-outs of the screen, such as a control signal, another cell line or another target. No call is given for them. The list favours compounds with an active or inconclusive main result. Potencies come from curve fits of mixed quality, noted in brackets.

The assay is described as follows: qHTS Assay to Find Inhibitors of Chronic Active B-Cell Receptor Signaling. The settings on record: ABC-DLBCL IkBa-CBG/CBR reporter, luminescence ratio (green luciferase fused to IkBa over red control in TMD8 lymphoma cells), 4 h. A digest of the protocol: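 Compounds up to 46 uM were incubated four hours with TMD8 cells whose green CBG68 luciferase is fused to IkappaBalpha; red CBR luminescence normalised the signal, and concentration-effect curves were fitted to fusion, red and ratio data.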
(In general: Quantitative high-throughput screening tests each substance at several concentrations.)

The mark [1] stands for this setting: measured here: CBR red luminescence, cell number.
[2] abbreviates: measured here: IkBa-CBG green luminescence.

As to `C[C@@]12C(=O)Nc3ccc(Cl)cc3C(=O)N1[C@H]1c3cc(Cl)ccc3OC[C@@H]1[C@@H]2c1ccccc1`, the AC50 (usually the concentration giving half of the maximal activity seen) under setting [1] was 29.1 µM [falling, single point].
On the same count and under the same terms, under `O=C(Nc1ccccc1)N1CCC(c2ccccc2)C1` (stereo not given) stands 8.91 µM [falling, partial curve]; under `O=C(/C=C/N1CCN(Cc2ccccc2)CC1)C(F)(F)F`, 25.1 µM [rising, single point]; under `Clc1ccc(Oc2ccccc2)c2ncccc12`, 3.98 µM [rising, partial curve, poor fit].
Still for that read-out and setting: the result for `COc1ccc(CNC(=O)c2cncc(Br)c2)cc1` reads 11.2 µM [rising, single point]; that for `CCN(CC)S(=O)(=O)c1ccc2c(c1)nc(SCC(N)=O)n2-c1ccc(OC)cc1`, 3.26 µM [rising, partial curve, poor fit].
Still for that read-out and setting: under `CCN(CC)c1ccc(/C=C(/C#N)C(=O)NC(C)C)o1` stands 2.82 µM [rising, partial curve, poor fit]; under `O=C(/C=C/c1ccc2c(c1)OCO2)c1ccc[nH]1`, 20.6 µM [falling, single point]; under `CCOc1ccc(S(=O)(=O)NN)cc1`, 0.146 µM [rising, full curve, poor fit].
Regarding `CC1CCCCN1CC(=O)Nc1sc2c(c1C#N)CCC2` (stereo not given), the AC50 under setting [1] is 3.55 µM [rising, single point].
Still for that read-out and setting: the result for `COc1ccc2oc(C(=O)N3CCc4ccccc43)c(C)c2c1` reads 5.62 µM [falling, single point].
On the same count and under the same terms, under `Cc1ccccc1C(=O)Nc1ccc(S(=O)(=O)N2CCN(C)CC2)cc1` stands 18.4 µM [rising, single point]; under `CCc1nc(N=C(N)N)nc2ccccc12`, 14.1 µM [falling, single point]; under `CC(C)Cc1nc(C#N)c(N2CCC(C(N)=O)CC2)o1`, 0.92 µM [rising, partial curve, poor fit].
On to `COc1ccc(C(=O)Nc2c(-c3cccs3)c(=O)c3ccccc3n2C)cc1`, for which the AC50 under setting [1] is 20 µM [rising, partial curve, poor fit].
Same read-out and setting: the result for `O=C(Nc1nc2ccc([N+](=O)[O-])cc2s1)c1ccncc1` reads 1 µM [falling, full curve].
In the case of `C=CCNC(=S)N/N=C(\C)c1ccccn1`, the AC50 under setting [2] was 7.31 µM [falling, partial curve, poor fit].
`Cc1cc(C(=O)NC2CCCc3ccccc32)ccc1[N+](=O)[O-]` (stereo not given): under setting [1], the AC50 was 35.5 µM [falling, single point].
On the same count and under the same terms, under `Cc1ccccc1N1CCN(c2ncnc3c2cnn3Cc2ccc(Cl)cc2)CC1` stands 0.517 µM [falling, full curve, poor fit]; under `CC(C)(C)OC(=O)N1CCC(CNC(=O)Nc2ccccc2)CC1`, 3.55 µM [rising, single point]; under `CS(=O)(=O)Cc1ccc(C(=O)Nc2cccc(-c3nc4ccccc4[nH]3)c2)cc1`, 10 µM [falling, partial curve, poor fit].
On the same count and under the same terms, under `COCCn1c(=N)c(C(=O)NCCc2ccc(OC)cc2)cc2c(=O)n3cccc(C)c3nc21` stands 0.631 µM [rising, partial curve, poor fit].
Still for that read-out and setting: under `Cc1ccc2[nH]cc(CCNC(=O)c3ccco3)c2c1` stands 3.98 µM [rising, full curve, poor fit].
With `COc1ccc(C2(CNC(=O)CCC(=O)O)CCCC2)cc1OC`, under setting [1], the AC50 is 23.1 µM [rising, single point].
For `NC(=S)N/N=C/c1ccc(-c2ccc([N+](=O)[O-])cc2)o1`, the AC50 under setting [1] was 35.5 µM [rising, single point] and the AC50 under setting [2] was 14.1 µM [falling, single point].
Take `Cc1ccc(NC(=S)Nc2ccc(C(C)C)cc2)cc1S(=O)(=O)N1CCCCCC1`: under setting [1], the AC50 was 25.9 µM [falling, partial curve, poor fit].
Same read-out and setting: the result for `CCOc1cc(C(=O)N2CCC(c3ccncc3)CC2)cc(OCC)c1OCC` reads 35.5 µM [falling, single point].
Same read-out and setting: under `O=C(CSCc1c(F)cccc1Cl)NCCc1ccccc1` stands 7.08 µM [rising, full curve].
Regarding `Cc1nn(Cc2ccc(C(=O)Nc3nccs3)cc2)c(C)c1Cl`, the AC50 under setting [1] is 1.41 µM [falling, full curve].
As to `CC(C)(C)c1cc(C(=O)NNS(=O)(=O)c2ccccc2)n[nH]1`, the AC50 under setting [1] is 2.82 µM [falling, single point].
In the case of `Cc1nc2ccccc2c(=O)n1/N=C/c1cn[nH]c1-c1ccccc1`, the AC50 under setting [1] was 0.891 µM [falling, full curve].
The same measure, in the same setting: under `O=C(CSc1nnc(CNc2ccc(Cl)cc2)o1)Nc1nc2ccccc2s1` stands 0.1 µM [rising, full curve, poor fit]; under `O=C(CSCc1cccc(Br)c1)N/N=C/c1ccc2c(c1)OCO2`, 14.1 µM [falling, partial curve, poor fit].
On the same count and under the same terms, under `CCNC(=S)N1CCc2cc(OC)c(OC)cc2C1COc1ccccc1OC` (stereo not given) stands 0.891 µM [rising, full curve, poor fit]; under `C=CCn1c(CCNC(=O)c2ccccc2F)nnc1SCC(=O)Nc1nc(C)cs1`, 29.1 µM [falling, single point].
For the molecule `O=C1/C(=C/c2ccsc2)N2CCC1CC2`, the AC50 under setting [1] is 5.62 µM [rising, single point].
Still for that read-out and setting: the result for `COc1ccc2c(c1OC)C(=O)N1N=C(c3ccccc3)CC21` (stereo not given) reads 13 µM [falling, partial curve, poor fit].
Regarding `CCOc1ccccc1C1C2=C(COC2=O)Nc2cc3c(cc21)OCO3` (stereo not given), the AC50 runs as follows: under setting [1], 3.55 µM [rising, full curve, poor fit]; under setting [2], 7.08 µM [falling, partial curve].
As to `COCCNC(=S)N=Nc1c(O)[nH]c2ccc([N+](=O)[O-])cc12`, under setting [1], the AC50 is 6.31 µM [rising, single point].
For `CCc1ccc2nc(NC(=O)C3CCN(c4ncnc5sc(C)c(C)c45)CC3)sc2c1`, under setting [1], the AC50 was 0.58 µM [rising, full curve, poor fit].
The same measure, in the same setting: the result for `CCCCNCCOCCSc1ccc(Cl)cc1` reads 12.6 µM [falling, single point].
As to `CC(C)N(CCC(=O)c1ccc2ccccc2c1)Cc1ccccc1`, under setting [1], the AC50 is 13 µM [falling, partial curve].
On the same count and under the same terms, under `C/C(=N\NC(=O)c1cc(Br)ccc1O)c1cccs1` stands 0.251 µM [falling, full curve]; under `COc1ccc(-n2cc(C(=O)c3ccccc3O)cn2)cc1`, 5.62 µM [falling, partial curve].
`CCOC(=O)N1CCC(NC(=O)CN2C(=O)C(CC)Oc3ccc(C)cc32)CC1` (stereo not given): the AC50 under setting [2] was 6.51 µM [rising, partial curve, poor fit].
As for `Cc1ccc(C(O)(C(=O)NN(C(=O)c2ccccc2)c2ccccc2)c2ccc(C)cc2)cc1`, the half-maximal activity concentration (AC50) under setting [1] is 10.3 µM [falling, partial curve, poor fit].
Same read-out and setting: the result for `O=C(CSc1nc(C2CC2)nc2ccccc12)N1CCCCC1` reads 35.5 µM [falling, single point]; that for `Cc1c(-c2ccccc2)c(=O)oc2cc(O)ccc12`, 11.2 µM [rising, partial curve].
The same measure, in the same setting: the result for `CCOC(=O)c1c(NC(=O)/C=C/C(=O)O)sc(C)c1-c1ccc(Cl)cc1` reads 8.91 µM [falling, partial curve, poor fit].
Take `O=C(O)C=C(Br)Br`: the AC50 under setting [1] is 35.5 µM [falling, partial curve, poor fit].
Same read-out and setting: the result for `O=C(CSc1ncn[nH]1)Nc1ccccc1Sc1ccccc1` reads 0.164 µM [falling, full curve, poor fit].
As to `CCN1C(=O)/C(=C/c2ccc(C)s2)NC1=S`, under setting [1], the AC50 was 5.8 µM [rising, partial curve, poor fit].
On the same count and under the same terms, under `CC(=O)c1c(C)nc2ccc([N+](=O)[O-])cc2c1-c1ccccc1` stands 35.5 µM [falling, single point]; under `COc1ccc(C2CC(=O)Nc3ccccc3S2(=O)=O)cc1OC` (stereo not given), 25.1 µM [falling, single point].
The same measure, in the same setting: the result for `O=C(Nc1ccc2ccccc2n1)c1ccccc1` reads 5.01 µM [falling, full curve]; that for `CCOC(=O)c1ccc(NC(=O)CN2C(=O)CN(C(C)=O)C2=S)cc1`, 11.2 µM [falling, partial curve, poor fit]; that for `CCCSCC(=O)Nc1ncc2c(n1)-c1ccccc1CC2`, 12.6 µM [falling, single point].
On to `CC(=O)c1cccc(NC(=O)c2ccc(Br)o2)c1`, for which the AC50 under setting [1] is 2.82 µM [rising, single point].
On the same count and under the same terms, under `CC(C)c1ccc(NCCC(=O)c2cccs2)cc1` stands 1.64 µM [rising, full curve]; under `Cc1cccc(NC(=O)c2sc3nc(-c4ccccc4)cn3c2C)n1`, 18.4 µM [falling, single point].
The same measure, in the same setting: the result for `O=C(O)c1ccc(NC(=S)NC(=O)c2ccc(-c3ccccc3)cc2)cc1` reads 7.08 µM [falling, partial curve].
On the same count and under the same terms, the result for `Cc1ccnc2c1ccc1ccccc12` reads 2 µM [rising, partial curve]; that for `COc1ccc(NC(=S)N(CCc2ccc(OC)c(OC)c2)Cc2ccccn2)cc1`, 20 µM [rising, single point]; that for `O=C(Nc1c2c(nn1-c1ccc(Cl)cc1)CS(=O)(=O)C2)c1ccccc1F`, 11.2 µM [falling, single point].
On to `Cc1ccc(C(O)(C(=O)NNc2ccc3ccccc3n2)c2ccc(C)cc2)cc1`, for which, under setting [1], the AC50 is 29.1 µM [rising, single point].
As for `CCCC1=NN(c2ccc([N+](=O)[O-])cc2)C(=O)/C1=C\N(C)C`, the AC50 under setting [1] is 16.4 µM [falling, single point].
For the molecule `N#Cc1ccc(Nc2nc(-c3ccc(O)cc3O)cs2)cc1C(F)(F)F`, the AC50 was 20.6 µM [falling, single point] under setting [1] and 29.1 µM [rising, partial curve, poor fit] under setting [2].
